Data from the ROBIN nucleic acid binder screens, doi:10.1002/anie.202211358.

Targets, with sequences 5′ to 3′:
PreQ1: PreQ1 riboswitch RNA pseudoknot, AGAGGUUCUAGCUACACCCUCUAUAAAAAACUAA. From B. subtilis. About 170 hits among about 24,000 compounds.
TPP: TPP riboswitch RNA three-way junction, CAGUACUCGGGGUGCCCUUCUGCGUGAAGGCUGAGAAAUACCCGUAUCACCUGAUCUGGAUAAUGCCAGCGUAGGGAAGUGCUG. About 160 hits among about 24,000 compounds.
SAM-II: SAM-II riboswitch RNA pseudoknot, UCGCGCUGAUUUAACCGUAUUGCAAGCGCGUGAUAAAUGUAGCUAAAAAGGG. About 200 hits among about 21,000 compounds.

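Each compound is printed as two spots on a slide made to bind it covalently, so it has no test concentration; the read-out is fluorescence of the bound, labelled oligonucleotide. The data file lists only calls. An earlier report of the laboratory on the PreQ1, TPP and SAM-II riboswitches (doi:10.1038/s41467-019-09493-3) used 1 µM RNA for 2 h and required a mean Z-score above 3 (spot signal-to-noise against the whole library), a score well above that on a control array, and duplicate spots agreeing (coefficient of variation under 100); it then also set aside compounds that hit other targets, which this list keeps. The cut-offs behind this list may differ. The calls come from the array alone, and fixing a compound to the slide can hide its binding.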
A compound is marked hit if it was called a hit and no hit if it was screened but was not.
Compounds were drawn at random from those tested, without regard to their results.
A target missing from an entry has no call listed here.

- COc1cccc(NC2=Nc3cccc4cccc2c34)c1 : PreQ1: no hit; TPP: no hit; SAM-II: no hit
- O=c1cc(N2CCNCC2)cnn1CC1COCCO1 (centres undefined) : PreQ1: no hit; TPP: no hit; SAM-II: no hit
- Cc1ccc(NC2CC(=O)N(c3ccc(Br)cc3)C2=O)cc1Cl (centres undefined) : PreQ1: no hit; TPP: no hit; SAM-II: no hit
- CCC(CO)NCC(O)Cn1c(C)c(C)c2ccccc21 (centres undefined) : PreQ1: no hit; TPP: no hit; SAM-II: no hit
- Nc1nonc1C(=O)NCCNCc1ccc(-c2cccc(Cl)c2)o1 : PreQ1: no hit; TPP: no hit
- CC(C)O[C@H]1CN(C(=O)Nc2cccc(OCc3ccccc3)c2)C[C@@H]1O : PreQ1: no hit; TPP: no hit; SAM-II: no hit
- Cc1cc(NCC(=O)N2CCN(c3cccc(Cl)c3)CC2)n2nc(-c3cccnc3)nc2n1 : PreQ1: no hit; TPP: no hit
- CCCCSc1nc(N)cc(N2CCCC(O)(CO)CC2)n1 (centres undefined) : PreQ1: no hit; TPP: no hit; SAM-II: no hit
- Cc1ccc2nc(-c3ccc(C)o3)c(NC3CCCCC3)n2c1 : PreQ1: no hit; TPP: no hit; SAM-II: no hit
- CCSCCn1cnc(-c2ccccc2)c1-c1ccc(CO)o1 : PreQ1: no hit; TPP: no hit; SAM-II: no hit
- O=C(O)C(=O)O.OC(Cn1nnc2ccccc21)Cn1c(-c2ccccc2)c(-c2ccccc2)c2ccc3ccccc3c21 (centres undefined) : PreQ1: no hit; TPP: no hit; SAM-II: no hit
- CC(C)c1noc(CCNC(=O)c2ccccc2C2CCNC2)n1 (centres undefined) : PreQ1: no hit; TPP: no hit; SAM-II: no hit
- CSc1cccc(NC2=C(C(N)=O)S(=O)(=O)c3ccccc32)c1 : PreQ1: no hit; TPP: no hit
- CS(=O)(=O)c1ccc(-c2cnc(N)c(C(=O)Nc3ccccc3)n2)cc1 : PreQ1: no hit; TPP: no hit; SAM-II: no hit
- Nc1nc(Cn2c(=O)oc3ccccc32)nc(N2CCCCC2)n1 : PreQ1: no hit; TPP: no hit; SAM-II: no hit
- COC(=O)c1ccc(N2CCN(C(=O)[C@H](O)C3CCCCC3)CC2)cc1 : PreQ1: no hit; TPP: no hit; SAM-II: no hit
- CC1=C(c2cccc(Br)c2)S(=O)(=O)N=C1Nc1ccc(F)cc1C : PreQ1: no hit; TPP: no hit
- Cc1cccc(C)c1NC(=O)CN1CCCC1=O : PreQ1: no hit; TPP: no hit; SAM-II: no hit
- NC(=NC(=O)c1ccccc1N)Nc1nc2ccccc2s1 : PreQ1: no hit; TPP: no hit; SAM-II: no hit
- COC(=O)c1ccc(OCC(O)CN2CCOCC2)cc1 (centres undefined) : PreQ1: no hit; TPP: no hit; SAM-II: no hit
- Cc1cc2c(F)c(Oc3ncnn4cc(OC[C@@H](C)O)c(C)c34)ccc2[nH]1 : PreQ1: no hit; TPP: no hit; SAM-II: no hit
- Cc1cc(C[C@@H]2COC[C@@H]2NC(=O)c2n[nH]c(N)c2-c2ccccc2)on1 : PreQ1: no hit; TPP: no hit; SAM-II: no hit
- NCCO[C@H]1C[C@@H](O)C12CCN(C(=O)c1n[nH]c3c1CCC3)CC2 : PreQ1: no hit; TPP: no hit; SAM-II: no hit
- O=C(CCC1CCN(C(=O)C2C=CCN2)CC1)Nc1ccc2c(c1)OCCO2 (centres undefined) : PreQ1: no hit; TPP: no hit; SAM-II: no hit
- CC1=C(c2ccc(C)c(C)c2)S(=O)(=O)N=C1NCCCN1CCN(C2CCCCC2)CC1 : PreQ1: no hit; TPP: no hit

Some entries from above, unchanged:

- CC(C)c1noc(CCNC(=O)c2ccccc2C2CCNC2)n1 (centres undefined) | PreQ1: no hit; TPP: no hit; SAM-II: no hit
- Cc1ccc(NC2CC(=O)N(c3ccc(Br)cc3)C2=O)cc1Cl (centres undefined) | PreQ1: no hit; TPP: no hit; SAM-II: no hit